Reference: paper PMC6344529

The chains behind the UniProt entries cited, without tags or fusion partners. Where a name states a change or a piece, a line headed by the entry shows the natural chain unless it says otherwise.
UniProt Q3UFQ8: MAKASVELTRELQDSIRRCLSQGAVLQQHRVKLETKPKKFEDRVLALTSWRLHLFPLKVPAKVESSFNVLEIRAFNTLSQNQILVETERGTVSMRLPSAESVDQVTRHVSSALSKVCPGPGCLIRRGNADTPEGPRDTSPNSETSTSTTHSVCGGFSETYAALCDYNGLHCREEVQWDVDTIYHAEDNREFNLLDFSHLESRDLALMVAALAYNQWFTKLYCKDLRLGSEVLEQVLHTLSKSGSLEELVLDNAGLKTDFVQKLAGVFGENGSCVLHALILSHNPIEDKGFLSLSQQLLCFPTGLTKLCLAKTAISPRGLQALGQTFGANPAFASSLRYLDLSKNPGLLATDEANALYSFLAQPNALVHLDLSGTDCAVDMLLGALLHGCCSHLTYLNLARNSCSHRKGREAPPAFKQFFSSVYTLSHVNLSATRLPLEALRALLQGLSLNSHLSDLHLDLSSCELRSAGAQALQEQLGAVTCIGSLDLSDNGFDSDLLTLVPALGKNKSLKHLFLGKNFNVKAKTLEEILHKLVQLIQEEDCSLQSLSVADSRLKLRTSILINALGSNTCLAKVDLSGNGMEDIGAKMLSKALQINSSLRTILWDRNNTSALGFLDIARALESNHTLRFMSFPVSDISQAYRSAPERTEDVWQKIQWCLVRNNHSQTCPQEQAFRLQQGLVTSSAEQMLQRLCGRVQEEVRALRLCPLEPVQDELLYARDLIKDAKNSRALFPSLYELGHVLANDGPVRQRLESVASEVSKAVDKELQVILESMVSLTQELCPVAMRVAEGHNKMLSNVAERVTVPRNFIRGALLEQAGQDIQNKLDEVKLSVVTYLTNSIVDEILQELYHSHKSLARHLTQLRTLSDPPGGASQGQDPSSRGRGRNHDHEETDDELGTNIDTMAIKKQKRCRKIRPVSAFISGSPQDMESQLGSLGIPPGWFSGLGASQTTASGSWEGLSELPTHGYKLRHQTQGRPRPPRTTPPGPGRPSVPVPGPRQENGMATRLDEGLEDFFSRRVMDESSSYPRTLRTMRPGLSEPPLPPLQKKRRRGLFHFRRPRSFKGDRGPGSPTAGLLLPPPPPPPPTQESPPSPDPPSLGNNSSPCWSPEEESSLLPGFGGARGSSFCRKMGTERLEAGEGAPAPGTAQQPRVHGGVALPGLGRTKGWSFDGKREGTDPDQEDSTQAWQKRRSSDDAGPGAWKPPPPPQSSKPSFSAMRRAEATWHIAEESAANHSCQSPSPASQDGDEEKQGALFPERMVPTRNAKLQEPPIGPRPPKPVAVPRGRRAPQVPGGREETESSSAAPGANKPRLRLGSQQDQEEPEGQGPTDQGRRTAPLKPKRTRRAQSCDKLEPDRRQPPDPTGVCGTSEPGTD
UniProt Q812A2: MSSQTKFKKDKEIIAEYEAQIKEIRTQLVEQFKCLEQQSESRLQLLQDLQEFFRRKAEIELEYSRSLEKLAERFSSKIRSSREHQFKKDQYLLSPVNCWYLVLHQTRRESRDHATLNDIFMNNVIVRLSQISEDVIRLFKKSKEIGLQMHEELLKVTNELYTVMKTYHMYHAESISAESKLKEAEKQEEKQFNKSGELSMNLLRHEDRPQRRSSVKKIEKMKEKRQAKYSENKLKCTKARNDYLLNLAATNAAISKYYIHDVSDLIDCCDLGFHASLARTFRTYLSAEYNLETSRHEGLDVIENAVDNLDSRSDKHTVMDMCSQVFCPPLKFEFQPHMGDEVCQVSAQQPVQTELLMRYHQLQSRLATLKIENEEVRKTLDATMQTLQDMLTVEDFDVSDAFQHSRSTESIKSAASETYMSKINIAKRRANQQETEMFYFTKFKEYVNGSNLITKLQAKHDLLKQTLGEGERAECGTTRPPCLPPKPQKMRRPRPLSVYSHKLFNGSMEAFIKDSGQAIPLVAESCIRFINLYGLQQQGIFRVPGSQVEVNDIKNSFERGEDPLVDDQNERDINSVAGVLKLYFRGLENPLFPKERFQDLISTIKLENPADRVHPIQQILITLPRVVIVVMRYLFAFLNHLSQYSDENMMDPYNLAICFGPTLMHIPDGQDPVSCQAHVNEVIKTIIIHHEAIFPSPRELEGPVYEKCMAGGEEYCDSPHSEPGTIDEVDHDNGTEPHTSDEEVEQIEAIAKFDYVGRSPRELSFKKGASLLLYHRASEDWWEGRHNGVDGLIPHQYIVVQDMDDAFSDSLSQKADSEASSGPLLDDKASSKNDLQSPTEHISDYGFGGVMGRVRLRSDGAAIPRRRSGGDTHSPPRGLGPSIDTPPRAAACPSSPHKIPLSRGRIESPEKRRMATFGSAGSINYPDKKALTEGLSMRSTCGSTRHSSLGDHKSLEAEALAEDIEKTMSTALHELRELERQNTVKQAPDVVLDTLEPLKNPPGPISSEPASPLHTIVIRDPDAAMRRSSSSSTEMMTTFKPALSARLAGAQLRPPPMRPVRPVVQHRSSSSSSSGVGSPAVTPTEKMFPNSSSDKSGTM

Assays:
[1] = molecular target: HA epitope tagged CARMIL3 lacking the predicted Wrp-binding site (UniProt Q3UFQ8); assay: co-IP; HEK293T cells co-transfected with HA-CARMIL3 constructs, Wrp constructs and CAPZB2-TwinStrepII; lysis in 25 mM HEPES, 150 mM NaCl, 0.5% Triton X-100, 1 mM EDTA; anti-HA beads overnight; blots with anti-HA, anti-V5, anti-capping protein beta
[2] = molecular target: HA epitope tagged CARMIL3 with a deletion of the CP-binding region (UniProt Q3UFQ8); assay: as above

Substance: V5-epitope tagged Wrp (full-length) (from UniProt Q812A2 1-1099)
- binding [1]: no binding
- binding [2]: binds

No constants are given. Whether binding was seen depends on the method and setting. In cells and extracts the contact can be indirect. For some assays here: Binding can be weak; no strength is given.
